The target of the assay is T1, Sine oculis homeobox homolog 1 (SIX1), endogenous (human (endogenous in 22Rv1, LNCaP, PC3)) (UniProt Q15475).
T1 sequence: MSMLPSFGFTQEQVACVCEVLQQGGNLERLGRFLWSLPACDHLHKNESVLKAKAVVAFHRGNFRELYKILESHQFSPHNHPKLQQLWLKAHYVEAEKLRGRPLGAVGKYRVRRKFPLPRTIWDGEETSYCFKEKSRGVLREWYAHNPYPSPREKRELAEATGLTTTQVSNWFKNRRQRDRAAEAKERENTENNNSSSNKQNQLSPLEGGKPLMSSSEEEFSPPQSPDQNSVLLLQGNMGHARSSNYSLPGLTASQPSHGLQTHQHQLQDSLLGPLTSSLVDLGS
The experiment in a line: affinity purification with mass spectrometry; endogenous SIX1 and control IgG immunoprecipitation from PC3 whole-cell lysate, SDS-PAGE, silver staining, LC-MS/MS.

The chains behind the UniProt entries cited, without tags or fusion partners.
UniProt Q9H4L4: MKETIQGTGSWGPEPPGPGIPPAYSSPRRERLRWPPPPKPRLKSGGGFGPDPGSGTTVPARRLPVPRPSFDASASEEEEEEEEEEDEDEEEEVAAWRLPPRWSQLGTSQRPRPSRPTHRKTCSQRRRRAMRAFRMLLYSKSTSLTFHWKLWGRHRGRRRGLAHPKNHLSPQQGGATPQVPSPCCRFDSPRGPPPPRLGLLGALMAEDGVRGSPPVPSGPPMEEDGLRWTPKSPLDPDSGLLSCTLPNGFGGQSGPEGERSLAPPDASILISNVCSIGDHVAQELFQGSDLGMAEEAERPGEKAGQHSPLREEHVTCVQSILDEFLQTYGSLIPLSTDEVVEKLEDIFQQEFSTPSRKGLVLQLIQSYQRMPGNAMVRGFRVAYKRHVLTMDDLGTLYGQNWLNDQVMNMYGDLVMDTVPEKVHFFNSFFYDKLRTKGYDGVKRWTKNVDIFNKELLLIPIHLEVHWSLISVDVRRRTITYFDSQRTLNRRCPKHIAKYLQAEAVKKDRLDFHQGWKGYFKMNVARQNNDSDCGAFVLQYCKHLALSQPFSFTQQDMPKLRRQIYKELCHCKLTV

These are yes or no findings as the source states them, for the method shown. In cells and extracts the contact can be indirect. These calls come from enrichment with a bait or labelling near it, and not all partners need be listed.

With “Sentrin/SUMO-specific protease 3 (SENP3), endogenous (from UniProt Q9H4L4 1-574) (enzyme)”, the binding entry was “binds”.
